These compounds were tested on MRC-5 human fibroblasts (assay: Cytotoxicity assay (AlamarBlue) on MRC-5 human fibroblasts). Conditions: MRC-5 vs P. falciparum K1.
Type: cell-based
Method: The MRC-5 cell line of human fibroblasts was grown in Dulbecco’s Modified Eagle’s Medium (DMEM) supplemented with 10% fetal bovine serum, 2 mM glutamine, 100 μg/mL streptomycin and 100 U/mL penicillin, and incubated at 37°C with a 5% atmosphere of CO2. For assays, the cells were plated in 96-well plates (2.5 × 10^4 cells/well) and the AlamarBlue™ assay was performed using a previously described procedure. After incubation for 24 h, compounds 1-5 were individually dissolved in DMSO and the resulting solutions were diluted in culture medium. The resulting dilute solutions of each sample were added to wells at final (well) concentrations of 1.56-100 μg/mL. Control groups had final well concentrations of 0.1% DMSO. The plates were further incubated for 48 h. 3 h before the end of the incubation period, AlamarBlue™ (10 μL) was added to each well. The fluorescent signal was monitored with a multiplate reader using 530-560 nm excitation and 590 nm emission wavelengths.

Structure (SMILES) | SI = IC50 (human fibroblasts)/IC50 (P. falciparum)
CC(=O)O[C@@H]1C2C(C)(C)C(=O)C=C[C@]2(C)C2CC[C@@]3(C)[C@H](c4ccoc4)C(=O)[C@H]4O[C@]43[C@]2(C)[C@@H]1OC(C)=O (stereo partly drawn) [compound 1, 6α-acetoxyepoxyazadiradione] | >12
CC(=O)O[C@@H]1C2C(C)(C)C(=O)C=C[C@]2(C)C2CC[C@@]3(C)[C@H](c4ccoc4)OC(=O)[C@H]4O[C@]43[C@]2(C)[C@@H]1OC(C)=O (stereo partly drawn) [compound 3, 6α-acetoxygedunin] | >26
CC1(C)C(=O)C=C[C@@]2(C)C1CC(=O)[C@]1(C)C2CC[C@@]2(C)[C@H](c3ccoc3)OC(=O)[C@H]3O[C@]321 (stereo partly drawn) [compound 4, 7-deacetoxy-7-oxogedunin] | 5

From publication PMC4138406, “In vitro and in vivo anti-malarial activity of limonoids isolated from the residual seed biomass from Carapa guianensis (andiroba) oil production” (Malaria Journal, 2014)
